Measurements reported in article doi:10.1101/2021.09.29.462327.
Results are given in words; binding and its absence hold for the method and conditions named. In cells and extracts the contact can be indirect. A yes stands for co-enrichment or nearness to the bait. Other partners may have been found.

Biological target: TbPH1-BioID2-HA (Trypanosoma brucei) (UniProt Q582W2)
Test: proximity labelling

TbKifX2C (from UniProt Q583P6)
binding: binds

FP45 (from UniProt Q38E24)
binding: binds

TbKifX2A (from UniProt Q38CW6)
binding: binds
